For this test, the target named is T1, zcytor11 and pDIRS1 receptors co-expressed on transfected BaF3 or BHK cells (human) (UniProt Q6UXL0).
T1 sequence 1: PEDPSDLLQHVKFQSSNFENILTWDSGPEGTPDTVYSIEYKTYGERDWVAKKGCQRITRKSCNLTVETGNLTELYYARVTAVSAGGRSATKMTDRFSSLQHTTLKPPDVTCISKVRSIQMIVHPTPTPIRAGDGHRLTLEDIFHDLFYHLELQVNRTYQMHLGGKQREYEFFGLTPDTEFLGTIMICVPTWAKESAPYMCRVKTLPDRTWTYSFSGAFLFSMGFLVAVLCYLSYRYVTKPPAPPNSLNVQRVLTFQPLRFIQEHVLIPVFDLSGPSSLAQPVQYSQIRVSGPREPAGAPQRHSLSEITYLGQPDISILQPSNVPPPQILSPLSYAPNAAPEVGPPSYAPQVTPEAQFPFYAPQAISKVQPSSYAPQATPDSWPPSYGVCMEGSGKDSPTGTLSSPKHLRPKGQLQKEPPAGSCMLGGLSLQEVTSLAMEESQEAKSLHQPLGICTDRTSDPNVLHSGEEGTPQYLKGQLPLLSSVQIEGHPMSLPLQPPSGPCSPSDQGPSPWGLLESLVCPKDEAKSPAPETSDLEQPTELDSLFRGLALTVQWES
T1 sequence 2: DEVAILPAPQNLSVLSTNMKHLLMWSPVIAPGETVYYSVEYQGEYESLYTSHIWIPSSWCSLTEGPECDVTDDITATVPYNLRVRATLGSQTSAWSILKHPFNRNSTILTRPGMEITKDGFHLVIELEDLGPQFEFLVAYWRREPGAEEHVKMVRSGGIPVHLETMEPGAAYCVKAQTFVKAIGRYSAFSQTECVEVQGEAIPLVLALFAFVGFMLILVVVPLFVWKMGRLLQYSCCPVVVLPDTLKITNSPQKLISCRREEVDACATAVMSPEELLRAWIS
In words: flow cytometry, biotinylated IL-TIF-CEE at 10 or 1 µg/ml plus PE-streptavidin on BaF3 transfectants (same results stated for BHK transfectants). A general note: A flow cytometer gives signals particle by particle.

Results on one molecule are retold here after patent US20030157096A1.

No constants are given. Whether binding was seen depends on the method and setting. Some results given as binding are weak or reduced against the parent protein; the word gives no strength.

B1: biotinylated human IL-TIF-CEE (ligand)
chain: APISSHCRLDKSNFQQPYITNRTFMLAKEASLADNNTDVRLIGEKLFHGVSMSERCYLMKQVLNFTLEEVLFPQSDRFQPYMQEVVPFLARLSNRLSTCHIEGDDLHIQRNVQKLKDTVKKLGESGEIKAIGELDLLFMSLRNACIEYMPME
modifications: biotinylated with EZ-link Sulfo-NHS-LC-biotin (sites not given)
In the case of B1, the binding result is reported as “binds”.
